{
  "source": "patent US11738082B2",
  "about": "“High concentration protein formulations with reduced viscosity” (Bhami's Research Laboratory, Pvt. Ltd., priority 2017, dated 2023)",
  "note": "Counter-ions that a name gives are not always drawn.",
  "data": [
    {"test_system": "Human Gamma Globulin (HGG), GLOBUCEL®", "experiment": "Estimation of HGG concentration by absorbance at 280 nm in the presence of UV absorbing viscosity-reducing agents", "values": [
      {"compound": "Cn1c(=O)c2c(ncn2C)n(C)c1=O", "note": "[Caffeine, reference compound]", "interference in the estimation of protein/HGG concentration using a UV-Vis spectrophotometer": "do not interfere"},
      {"compound": "N[C@@H](Cc1c[nH]c2ccccc12)C(=O)O", "note": "[Tryptophan]", "interference in the estimation of protein/HGG concentration using a UV-Vis spectrophotometer": "do not interfere"},
      {"compound": "O=C(O)c1cccnc1", "note": "[Nicotinic acid (acid form)]", "interference in the estimation of protein/HGG concentration using a UV-Vis spectrophotometer": "do not interfere"},
      {"compound": "Cc1ncc(C[n+]2csc(CCO)c2C)c(N)n1", "note": "[Thiamine-HCl]", "interference in the estimation of protein/HGG concentration using a UV-Vis spectrophotometer": "do not interfere"}
    ]}
  ]
}
